Patent US8614217B2 (priority 2008, dated 2013)
Some results were stated once for a whole list of compounds, not compound by compound.

How the values were obtained:
Phytophthora infestans = format: in vivo; conditions: 500 ppm of active ingredient; preventive, tomato plants; evaluated 7 days after inoculation
Plasmopara viticola = test: Plasmopara test (grapevines)/protective; format: in vivo; conditions: 10 ppm of active ingredient, protective, evaluated 6 days after inoculation

Row | SMILES | efficacy (Phytophthora infestans) [%] | efficacy (Plasmopara viticola) [%]
1 | Cc1nnnn1C(=NOCc1csc(NC(=O)C2(c3ccccc3)CC2)n1)c1ccccc1 (mixture of isomers) [Example 70] | ≥ 70 | ≥ 70
2 | Cc1nnnn1C(=NOCc1csc(NC(=O)C2CC2c2ccccc2)n1)c1ccccc1 (mixture of isomers) [Example 71] | ≥ 70 | ≥ 70
3 | Cc1nnnn1C(=NOCc1csc(NC(=O)c2cccc(F)c2)n1)c1ccccc1 (mixture of isomers) [Example 76] | ≥ 70 | ≥ 70
4 | CCc1ccc(C(=O)Nc2nc(CON=C(c3ccccc3)n3nnnc3C)cs2)cc1 (mixture of isomers) [Example 80] | ≥ 70 | ≥ 70
5 | Cc1nnnn1C(=NOCc1csc(NC(=O)c2cccs2)n1)c1ccccc1 (mixture of isomers) [Example 82] | – | ≥ 70
6 | Cc1nnnn1C(=NOCc1csc(NC(=O)CC2CC2)n1)c1ccccc1 (mixture of isomers) [Example 84] | ≥ 70 | ≥ 70
7 | Cn1nnnc1C(=NOCc1csc(NC(=O)COc2ccccc2)n1)c1ccccc1 (mixture of isomers) [Example 208] | ≥ 70 | ≥ 70
8 | CCOc1ccc(C(=O)Nc2cccc(CON=C(c3ccccc3)c3nnnn3C)n2)cc1 [Example 1] | ≥ 70 | ≥ 70
9 | Cc1cc(C(F)(F)F)nn1CC(=O)Nc1cccc(CON=C(c2ccccc2)c2nnnn2C)n1 [Example 2] | ≥ 70 | ≥ 70
10 | Cn1nnnc1C(=NOCc1cccc(NC(=O)C(F)(F)Oc2ccccc2)n1)c1ccccc1 [Example 3] | – | ≥ 70
11 | Cc1cccc(OC(F)(F)C(=O)Nc2cccc(CON=C(c3ccccc3)c3nnnn3C)n2)c1 [Example 4] | ≥ 70 | ≥ 70
12 | Cc1ccc(OC(F)(F)C(=O)Nc2cccc(CON=C(c3ccccc3)c3nnnn3C)n2)cc1 [Example 5] | ≥ 70 | ≥ 70
13 | Cn1nnnc1C(=NOCc1cccc(NC(=O)C(F)(F)Sc2ccccc2)n1)c1ccccc1 [Example 6] | ≥ 70 | ≥ 70
14 | Cc1ccc(SC(F)(F)C(=O)Nc2cccc(CON=C(c3ccccc3)c3nnnn3C)n2)cc1 [Example 7] | ≥ 70 | ≥ 70
15 | C#CCCOC(=O)Nc1cccc(CON=C(c2ccccc2)n2nnnc2C)n1 [Example 17] | ≥ 70 | ≥ 70
16 | CC#CCOC(=O)Nc1cccc(CON=C(c2ccccc2)n2nnnc2C)n1 [Example 18] | ≥ 70 | ≥ 70
17 | C=CCCOC(=O)Nc1cccc(CON=C(c2ccccc2)n2nnnc2C)n1 [Example 19] | ≥ 70 | ≥ 70
18 | Cc1nnnn1C(=NOCc1cccc(NC(=O)OCCCCCl)n1)c1ccccc1 [Example 20] | ≥ 70 | ≥ 70
19 | Cn1nnnc1C(=NOCc1csc(NC(=O)C#Cc2ccccc2)n1)c1cccc(F)c1 [Example 231] | ≥ 70 | –
20 | Cn1nnnc1C(=NOCc1csc(NC(=O)C=C(Cl)c2ccccc2)n1)c1cccc(F)c1 [Example 232] | ≥ 70 | –
21 | Cn1nnnc1C(=NOCc1csc(NC(=O)CC2CCCCC2)n1)c1cccc(F)c1 [Example 235] | ≥ 70 | –
22 | Cn1nnnc1C(=NOCc1csc(NC(=O)CCC2CCCCC2)n1)c1cccc(F)c1 [Example 236] | ≥ 70 | –
23 | Cn1nnnc1C(=NOCc1csc(NC(=O)C(F)(F)Sc2ccccc2)n1)c1cccc(F)c1 [Example 239] | ≥ 70 | –
24 | Cn1nnnc1C(=NOCc1csc(NC(=O)C(F)(F)Oc2ccccc2)n1)c1cccc(F)c1 [Example 240] | ≥ 70 | –
25 | Cn1nnnc1C(=NOCc1csc(NC(=O)CCCC2CCCCC2)n1)c1cccc(F)c1 [Example 241] | ≥ 70 | –
26 | Cn1nnnc1C(=NOCc1cccc(NC(=O)C(F)(F)Oc2ccccc2)n1)c1ccccc1 [Example 375] | ≥ 70 | –
